According to paper PMC7069958, “Multi-level and lineage-specific interactomes of the Hox transcription factor Ubx contribute to its functional specificity”:

Legend:
[1] = target: myc-BirA*-Ubx wild type fusion (mB*Ubx^WT) (Drosophila); test: proximity labelling; twi-BioID: mB* fusion proteins expressed in the mesoderm (twi-GAL4), stage 10-13 embryos (5-8 h AEL); nuclear extract, streptavidin affinity purification, mass spectrometry; enrichment against mB*nlsGFP in at least 2 of 4 replicates
[2] = target: myc-BirA*-Ubx wild type fusion (mB*Ubx^WT) (Drosophila); test: proximity labelling; sca-BioID: mB* fusion proteins expressed in the neuroectoderm (sca-GAL4), stage 9-11 embryos (2.5-5 h AEL); nuclear extract, streptavidin affinity purification, mass spectrometry; enrichment against mB*nlsGFP in at least 2 of 4 replicates

B1: small ribonucleoprotein particle U1 subunit 70 K (snRNPU1-70K), endogenous (protein, UniProt P17133 1-448)
chain: MTQYLPPNLLALFAAREPIPFMPPVDKLPHEKKSRGYLGVAKFMADFEDPKDTPLPKTVETRQERLERRRREKAEQVAYKLEREIALWDPTEIKNATEDPFRTLFIARINYDTSESKLRREFEFYGPIKKIVLIHDQESGKPKGYAFIEYEHERDMHAAYKHADGKKIDSKRVLVDVERARTVKGWLPRRLGGGLGGTRRGGNDVNIKHSGREDNERERERYRLEREREDREGPGRGGGSNGLDARPGRGFGAERRRSRSRERRDRERDRGRGAVASNGRSRSRSRERRKRRAGSRERYDEFDRRDRRDRERERDRDREREKKKKRSKSRERESSRERRERKRERRDRERGTGSGGDVKERKPDFRDMDVIKIKEEPVDDGYPTFDYQNATIKREIDDEDEEKYRPPPAHHNMFSVPPPPILGRGNASTNPNPDNGQQSSGDPSWWRQ
binding [1]: binds

B2: Bx-42, endogenous (protein, UniProt P39736 1-547)
chain: MSLSSLLPTPTNAIWDREDERRLVARGAPKIGALVSAKIAAPPYGQRKDWVPHTDADFGDGGAFPEIHVAQYPLGLGAPGNVGKKSDALAVRLDDKGKVKYDAIARQGHGKDKIVYSSISQLLPAEVLAEDADELQRPDEETVMETTEETRLALEKLTNQKITSALPVRHAQKAGPAQYIRYTPSQQGDTFNSGAKQRVIRMVEAQLDPMEPPKFRINKKIPRGPPSPPAPVLHSPSRKVTVKEQKEWKIPPCISNWKNAKGYTIPLDKRLAADGRGLQQVHINEKFAKMAEALYIADRKAREAVEARSQLEKKLAQKEKEKKEDMLRMMAQRAREERAGLRNPEAAEPSGSGATGSEVRERNDLRAERQRERQRDRNLQRAAPEKRSKLQKERERDISEQIALGLPAKSAGNGETLFDQRLFNTTKGMDSGYGDDEAYNVYDKPWRDSNTLGAHIYRPSKQADSDNYGGDLDAIVNTKRFVPDKQFSGASKEAAAGQRSGPVEFEKEEDPFGLDQFLNMAKKAPKRAEEKNNERSSHSDRKRSKRD
binding [1]: binds

B3: Nucampholin (Ncm), endogenous (protein, UniProt Q9VJ87 1-1330)
chain: MGESDAESDSSSNSSSSDTSSGSDSDARSESSSSESSGREEEEAKQEESAKDAKKTDDTDRGEKRAKERDAGQDEQPTEQKKTPAAEPRSERQHISHSAGVEKQQEEAVAAAEAESEKLNEAKKVETPVQRKEEAEASSVTKELNSPKAQEENAARELEERRKDEEQPVTTNGSSKESPVEAAAETVKPPTADHIEEGEITDKDEDDLPTKEEKKAVASKSPPKETQRKQSRSPDGKRRRPRSSSRSPSPSSRRRRRSRSKGSRTRSRSKSPIRRRSNSLERRRVERQRRHEERDKRDEERAKEREKRHQKGEPTSSRRRDDSREKKRSPERKRDRSSSTPKSKSSKTPRHTETTETNADNETVTEPAAKITERQRKTVDVLTSRTGGAYIPPAKLRMMQSQITDKSSAAYQRIAWEALKKSIHGYINKVNVTNIAIITRELLRENIVRGRGLLSRSIIQAQAASPTFTHVYAALVSIINSKFPNIGELLLKRLVIQFRRAFRRNDKMVCMSATRFIGHLVNQRVAHEILALEILTLLVETPTDDSVEVAIAFLKECGMKLTEVSSKGIGAIFEMLRNILHEGKLDKRVQYMIEVLFQIRKDGFKDHQAVVPELELVEEDDQFTHLMMLDEATETEDILNVFKFDDNYAENEDKYKGLSREILGSDDGSSSGSGSGSDSDSDSDGESGSDAEKKAEAGDIIDSTETNLIALRRTIYLTINSSLDYEECAHKLMKMQLKPGQEIELCHMFLDCCAEQRTYEKFYGLLAQRFCNINKIYIPPFEEIFKDTYQTTHRLDTNRLRNVSKFFAHLLFTDAISWDVLECIQLNEDDTTSSSRIFIKILFQELAEYMGLGKLNAKLKDDVLVESIAGLFPKDNPRNTRFSINFFTSIGLGGLTDDLRRFLKNAPKSVPAINAEILANAGGNPFRDGSAPAGNTKVAPSSSSSSSSSSDTDSEDSSEEDSSSDSSSESSSSDSSSEPKKKRKRKDKDKKKSKKATKEKSKKTKNKKKKKKAEKEQEKEKEKQRKSKKEKEKDKKRKKEEKKAAKKKSKHRRKSQESSDSSGSEDSDKSTSESSDSSNSSSDESDAEPQAKIKRQEHVEKNKFRGRTQDSDEFNLEGPGSKNRFQPNGNGQRRRDNSTGRERNRENSSYDRERNRGNSSYDRERKRGNSSYDRERNRESSYDKERKNRNAVAHDRQRKRDRSRSYERPTIRENSAPREKRMESSRSEKDSRRGDRSSRNERSDRGERSDRGERSDRGERSDRGERSDRGERSDRGERSDREKERSRAKERERDRDRDLKGQRERKRERDDGSRDRSRRERSSRRSKGRS
binding [1]: binds

B4: Tinman (Tin), endogenous (protein, UniProt P22711 1-416)
chain: MLQHHQQQAQSGGYYDHYTQSPSPGSLTNADALNTTPFSVKDILNMVNQTEAYEGSYGHIDGAATASALFAAGEYQNPHQYLNHQQHQQSELPIPQQQLHHQHLDDGATTSSSLSPLLPPPPHQLYGGYQDYGMPAHMFQHHHGHPHQSFQHSASAYNMSASQFYAGASATAYQTPATYNYNYAGSGEVYGGATPSAVGIKSEYIPTPYVTPSPTLDLNSSAEVDSLQAPTQKLCVNPLSQRLMETASNSSSLRSIYGSDEGAKKKDNSQVTSSRSELRKNSISGNSNPGSNSGSTKPRMKRKPRVLFSQAQVLELECRFRLKKYLTGAEREIIAQKLNLSATQVKIWFQNRRYKSKRGDIDCEGIAKHLKLKSEPLDSPTSLPPPIPNHVMWPPTMQQSQQQQQHHAQQQQMQHM
binding [1]: binds

B5: Brick a brac 2 (Bab2), endogenous (protein, UniProt Q9W0K4 1-1067)
chain: MDMTKQIVDFEIKSELIGEIDQFEASDYTMAPPEEPKMVEESPQLGHLEDQNRKYSPEREVEPTLQDPSEVVDQMQKDTESVGEVKSPEKDVETELVKSKASPMNDQALTPPPRPLTSSEVVGLRDPEHTELRMCLEAKKSRSLPVSPQPQPNLKLAGSALFEFGQRSSPVETKIKTNPETKPPRRKIVPPSGEGQQFCLRWNNYQSNLTNVFDELLQSESFVDVTLSCEGHSIKAHKMVLSACSPYFQALFYDNPCQHPIIIMRDVSWSDLKALVEFMYKGEINVCQDQINPLLKVAETLKIRGLAEVSAGRGEGGASALPMSAFDDEDEEEELASATAILQQDGDADPDEEMKAKRPRLLPEGVLDLNQRQRKRSRDGSYATPSPSLQGGESEISERGSSGTPGQSQSQPLAMTTSTIVRNPFASPNPQTLEGRNSAMNAVANQRKSPAPTATGHSNGNSGAAMHSPPGGVAVQSALPPHMAAIVPPPPSAMHHHAQQLAAQHQLAHSHAMASALAAAAAGAGAAGAGGAGSGSGSGASAPTGGTGVAGSGAGAAVGSHHDDMEIKPEIAEMIREEERAKMIESGGHGGWMGAAAAATGAASVAADSYQYQLQSMWQKCWNTNQQNLVQQLRFRERGPLKSWRPEAMAEAIFSVLKEGLSLSQAARKFDIPYPTFVLYANRVHNMLGPSLDGGADPRPKARGRPQRILLGMWPEELIRSVIKAVVFRDYREIKEDMSAHQYANGQGHGTYIGGGTTTNGYHSAAAAKLAAQNAALAPPDAGSPLSSMTETLRRQILSQQQQHQQHHQQQAHHQQQPSHHQQQSPHAQSMNMYKSPAYLQRSEIEDQVSAAAAVAAAAAKHQQQQGERRGSENLPDLSALGLMGLPGLNVMPSRGSGGGSGGAAPNSAASYARELSRERERDRERERERELSRQYGSQSRGSSSGSGSAKSLTASQRPGAASPYSAAHYAKHQASAYNKRFLESLPAGIDLEAFANGLLQKSVNKSPRFEDFFPGPGQDMSELFANPDASAAAAAAAYAPPGAIRESPLMKIKLEQQHATELPHED
binding [1]: binds

B6: Polycomb (Pc), endogenous (protein, UniProt P26017 1-390)
chain: MTGRGKGSKGKLGRDNATDDPVDLVYAAEKIIQKRVKKGVVEYRVKWKGWNQRYNTWEPEVNILDRRLIDIYEQTNKSSGTPSKRGIKKKEKEPDPEPESEEDEYTFTENDVDTHQATTSSATHDKESKKEKKHHHHHHHHHHIKSERNSGRRSESPLTHHHHHHHHESKRQRIDHSSSSNSSFTHNSFVPEPDSNSSSSEDQPLIGTKRKAEVLKESGKIGVTIKTSPDGPTIKPQPTQQVTPSQQQPFQDQQQAEKIASEAATQLKSEQQATPLATEAINTTPAESGAEEEEVANEEGNQQAPQVPSENNNIPKPCNNLAINQKQPLTPLSPRALPPRFWLPAKCNISNRVVITDVTVNLETVTIRECKTERGFFRERDMKGDSSPVA
binding [2]: binds

No constants are given. Whether binding was seen depends on the method and setting. Binding seen in cells or lysates may run through a third protein. Here binding means that the protein was enriched with, or labelled near, the bait; the list need not be complete.
